In paper PMC4339890 (Nature Communications, 2015) one finds binding data, which are given here for one substance.

Chains of the proteins cited; added tags and fusions are not shown.
UniProt Q9BUH6: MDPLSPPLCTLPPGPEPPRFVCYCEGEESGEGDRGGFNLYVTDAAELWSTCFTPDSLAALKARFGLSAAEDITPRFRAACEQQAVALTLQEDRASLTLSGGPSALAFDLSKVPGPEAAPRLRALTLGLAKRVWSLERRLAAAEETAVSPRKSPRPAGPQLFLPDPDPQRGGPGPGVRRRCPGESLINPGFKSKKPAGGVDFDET

Results are given in words; binding and its absence hold for the method and conditions named. Binding seen in cells or lysates may run through a third protein. These calls come from enrichment with a bait or labelling near it, and not all partners need be listed. Where a sequence is shown, tags or fusion partners need not be part of it.

The target of assay [1] is T1, Flag-tagged APTX–polynucleotide kinase-phosphatase-like factor (human) (UniProt Q8IW19).
T1 sequence: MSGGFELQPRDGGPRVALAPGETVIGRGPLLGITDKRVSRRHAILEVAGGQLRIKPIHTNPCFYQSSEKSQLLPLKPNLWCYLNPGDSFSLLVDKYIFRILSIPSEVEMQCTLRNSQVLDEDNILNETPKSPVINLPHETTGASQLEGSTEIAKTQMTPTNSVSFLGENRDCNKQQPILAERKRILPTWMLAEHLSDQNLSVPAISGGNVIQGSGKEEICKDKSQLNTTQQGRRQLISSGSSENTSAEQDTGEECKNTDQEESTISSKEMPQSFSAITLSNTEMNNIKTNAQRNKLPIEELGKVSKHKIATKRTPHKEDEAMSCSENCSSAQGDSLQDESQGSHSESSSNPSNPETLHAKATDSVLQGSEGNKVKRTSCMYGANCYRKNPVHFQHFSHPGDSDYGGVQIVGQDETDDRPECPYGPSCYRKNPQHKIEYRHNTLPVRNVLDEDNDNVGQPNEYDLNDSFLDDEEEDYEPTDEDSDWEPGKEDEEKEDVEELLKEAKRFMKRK

Assay [2] addresses T2, Flag-tagged DNA polymerase λ (human) (UniProt Q9UGP5).
T2 sequence: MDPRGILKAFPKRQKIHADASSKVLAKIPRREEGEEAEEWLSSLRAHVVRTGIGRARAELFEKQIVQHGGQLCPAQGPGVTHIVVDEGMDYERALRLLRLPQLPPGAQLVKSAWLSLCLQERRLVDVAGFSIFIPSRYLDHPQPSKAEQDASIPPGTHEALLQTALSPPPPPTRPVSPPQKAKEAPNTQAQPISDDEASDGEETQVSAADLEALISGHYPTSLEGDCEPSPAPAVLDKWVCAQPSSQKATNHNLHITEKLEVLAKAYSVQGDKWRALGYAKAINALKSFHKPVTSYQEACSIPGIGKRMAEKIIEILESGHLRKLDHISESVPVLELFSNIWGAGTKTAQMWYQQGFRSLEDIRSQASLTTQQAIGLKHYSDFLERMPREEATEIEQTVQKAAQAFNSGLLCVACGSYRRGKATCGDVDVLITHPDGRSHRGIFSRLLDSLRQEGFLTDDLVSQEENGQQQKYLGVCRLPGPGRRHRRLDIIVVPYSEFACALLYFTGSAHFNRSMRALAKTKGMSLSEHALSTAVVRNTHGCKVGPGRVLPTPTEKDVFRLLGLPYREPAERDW

“PAXX (C9orf142), endogenous (from UniProt Q9BUH6 1-204)”: the binding entry in assay [1] and in assay [2] was “binds” in each case.
